# In the supplement of paper PMC11438910:
# The other results are listed elsewhere or left out. Only a few entries rise above the background.
# B1: 4-173.3 (protein)
# chain 1: QLQLQESGPGLVKPSETLSLTCAVSGGSINNNYWSWIRQPPGKGLEWIGRIFGSGGSTDYNPSLKSRVTISTDTSKTQFSLNLNSVTAADTAVYFCARGSYQVDYWGQGVLVTVSS
# chain 2: QAALTQPPSMSGSPGQSVTISCTGTSSDIGGWNRVSWYQQYPGKAPKLMIYEVSKRPSGVSDRFSGSKSGNTASLTISGLQAEDEADYYCSSYVHINNALFGGGTRLTVL
# Assays:
# Assay in all cases: fluorescence intensity of antibody binding to polysaccharide-coupled beads; higher = stronger binding
# [1] = target: pneumococcal polysaccharide Pn38
# [2] = target: pneumococcal polysaccharide Pn39
# [3] = target: pneumococcal polysaccharide Pn4
# [4] = target: pneumococcal polysaccharide Pn40
# [5] = target: pneumococcal polysaccharide Pn41A
# [6] = target: pneumococcal polysaccharide Pn41F
# [7] = target: pneumococcal polysaccharide Pn42
# [8] = target: pneumococcal polysaccharide Pn43
# [9] = target: pneumococcal polysaccharide Pn44
# [10] = target: pneumococcal polysaccharide Pn45
# [11] = target: pneumococcal polysaccharide Pn46
# [12] = target: pneumococcal polysaccharide Pn47A
# [13] = target: pneumococcal polysaccharide Pn47F
# [14] = target: pneumococcal polysaccharide Pn48
# [15] = target: pneumococcal polysaccharide Pn5
# [16] = target: pneumococcal polysaccharide Pn6A
# [17] = target: pneumococcal polysaccharide Pn6B
# [18] = target: pneumococcal polysaccharide Pn6C
# [19] = target: pneumococcal polysaccharide Pn6D
# [20] = target: pneumococcal polysaccharide Pn7A
# [21] = target: pneumococcal polysaccharide Pn7B
# [22] = target: pneumococcal polysaccharide Pn7C
# [23] = target: pneumococcal polysaccharide Pn7F
# [24] = target: pneumococcal polysaccharide Pn8; details: antibody concentration 0.1 ng/mL
# [25] = antibody concentration 81.7561 ng/mL
# [26] = antibody concentration 437.17 ng/mL
# [27] = antibody concentration 2337.65 ng/mL
# [28] = antibody concentration 12500 ng/mL
# [29] = antibody concentration 0.1 ng/mL
# [30] = antibody concentration 0.534724 ng/mL
# [31] = antibody concentration 2.8593 ng/mL
# [32] = antibody concentration 15.2894 ng/mL
binder,measurement,setting,value
B1,fluorescence intensity,[1]; [25],23 MFI
same,fluorescence intensity,[1]; [26],26 MFI
same,fluorescence intensity,[1]; [27],26.5 MFI
same,fluorescence intensity,[1]; [28],35.2 MFI
same,fluorescence intensity,[2]; [29],16.5 MFI
same,fluorescence intensity,[2]; [30],16.5 MFI
same,fluorescence intensity,[2]; [31],17.5 MFI
same,fluorescence intensity,[2]; [32],17.5 MFI
same,fluorescence intensity,[2]; [25],18 MFI
same,fluorescence intensity,[2]; [26],17.8 MFI
same,fluorescence intensity,[2]; [27],19.5 MFI
same,fluorescence intensity,[2]; [28],35 MFI
same,fluorescence intensity,[3]; [29],18 MFI
same,fluorescence intensity,[3]; [30],17.2 MFI
same,fluorescence intensity,[3]; [31],16.5 MFI
same,fluorescence intensity,[3]; [32],17.5 MFI
same,fluorescence intensity,[3]; [25],17.5 MFI
same,fluorescence intensity,[3]; [26],19.5 MFI
same,fluorescence intensity,[3]; [27],23.5 MFI
same,fluorescence intensity,[3]; [28],37 MFI
same,fluorescence intensity,[4]; [29],15.2 MFI
same,fluorescence intensity,[4]; [30],15 MFI
same,fluorescence intensity,[4]; [31],15.8 MFI
same,fluorescence intensity,[4]; [32],14.5 MFI
same,fluorescence intensity,[4]; [25],15.2 MFI
same,fluorescence intensity,[4]; [26],15.5 MFI
same,fluorescence intensity,[4]; [27],21 MFI
same,fluorescence intensity,[4]; [28],51 MFI
same,fluorescence intensity,[5]; [29],21.5 MFI
same,fluorescence intensity,[5]; [30],22 MFI
same,fluorescence intensity,[5]; [31],23 MFI
same,fluorescence intensity,[5]; [32],22.5 MFI
same,fluorescence intensity,[5]; [25],21.5 MFI
same,fluorescence intensity,[5]; [26],22.8 MFI
same,fluorescence intensity,[5]; [27],24 MFI
same,fluorescence intensity,[5]; [28],27.5 MFI
same,fluorescence intensity,[6]; [29],12.8 MFI
same,fluorescence intensity,[6]; [30],12 MFI
same,fluorescence intensity,[6]; [31],13 MFI
same,fluorescence intensity,[6]; [32],11.8 MFI
same,fluorescence intensity,[6]; [25],11.5 MFI
same,fluorescence intensity,[6]; [26],13 MFI
same,fluorescence intensity,[6]; [27],15 MFI
same,fluorescence intensity,[6]; [28],21 MFI
same,fluorescence intensity,[7]; [29],11.5 MFI
same,fluorescence intensity,[7]; [30],11 MFI
same,fluorescence intensity,[7]; [31],12 MFI
same,fluorescence intensity,[7]; [32],11.2 MFI
same,fluorescence intensity,[7]; [25],11 MFI
same,fluorescence intensity,[7]; [26],11.2 MFI
same,fluorescence intensity,[7]; [27],12.5 MFI
same,fluorescence intensity,[7]; [28],23.2 MFI
same,fluorescence intensity,[8]; [29],14 MFI
same,fluorescence intensity,[8]; [30],14.5 MFI
same,fluorescence intensity,[8]; [31],15.5 MFI
same,fluorescence intensity,[8]; [32],13.2 MFI
same,fluorescence intensity,[8]; [25],15 MFI
same,fluorescence intensity,[8]; [26],16.5 MFI
same,fluorescence intensity,[8]; [27],24.5 MFI
same,fluorescence intensity,[8]; [28],80.5 MFI
same,fluorescence intensity,[9]; [29],23 MFI
same,fluorescence intensity,[9]; [30],25.2 MFI
same,fluorescence intensity,[9]; [31],24 MFI
same,fluorescence intensity,[9]; [32],23 MFI
same,fluorescence intensity,[9]; [25],25 MFI
same,fluorescence intensity,[9]; [26],25.5 MFI
same,fluorescence intensity,[9]; [27],26.2 MFI
same,fluorescence intensity,[9]; [28],33 MFI
same,fluorescence intensity,[10]; [29],9.5 MFI
same,fluorescence intensity,[10]; [30],11 MFI
same,fluorescence intensity,[10]; [31],11 MFI
same,fluorescence intensity,[10]; [32],10.5 MFI
same,fluorescence intensity,[10]; [25],10.5 MFI
same,fluorescence intensity,[10]; [26],10.5 MFI
same,fluorescence intensity,[10]; [27],12.5 MFI
same,fluorescence intensity,[10]; [28],16.5 MFI
same,fluorescence intensity,[11]; [29],22.5 MFI
same,fluorescence intensity,[11]; [30],23.5 MFI
same,fluorescence intensity,[11]; [31],23.5 MFI
same,fluorescence intensity,[11]; [32],23 MFI
same,fluorescence intensity,[11]; [25],24 MFI
same,fluorescence intensity,[11]; [26],23 MFI
same,fluorescence intensity,[11]; [27],25 MFI
same,fluorescence intensity,[11]; [28],44.8 MFI
same,fluorescence intensity,[12]; [29],15 MFI
same,fluorescence intensity,[12]; [30],15.2 MFI
same,fluorescence intensity,[12]; [31],14.8 MFI
same,fluorescence intensity,[12]; [32],16.5 MFI
same,fluorescence intensity,[12]; [25],15.5 MFI
same,fluorescence intensity,[12]; [26],14.5 MFI
same,fluorescence intensity,[12]; [27],15 MFI
same,fluorescence intensity,[12]; [28],22 MFI
same,fluorescence intensity,[13]; [29],11.5 MFI
same,fluorescence intensity,[13]; [30],11.5 MFI
same,fluorescence intensity,[13]; [31],11 MFI
same,fluorescence intensity,[13]; [32],11 MFI
same,fluorescence intensity,[13]; [25],12 MFI
same,fluorescence intensity,[13]; [26],12 MFI
same,fluorescence intensity,[13]; [27],14.5 MFI
same,fluorescence intensity,[13]; [28],34.5 MFI
same,fluorescence intensity,[14]; [29],20.2 MFI
same,fluorescence intensity,[14]; [30],20.8 MFI
same,fluorescence intensity,[14]; [31],20 MFI
same,fluorescence intensity,[14]; [32],20 MFI
same,fluorescence intensity,[14]; [25],21.5 MFI
same,fluorescence intensity,[14]; [26],21.5 MFI
same,fluorescence intensity,[14]; [27],25.2 MFI
same,fluorescence intensity,[14]; [28],47.5 MFI
same,fluorescence intensity,[15]; [29],8 MFI
same,fluorescence intensity,[15]; [30],8.75 MFI
same,fluorescence intensity,[15]; [31],8.75 MFI
same,fluorescence intensity,[15]; [32],9 MFI
same,fluorescence intensity,[15]; [25],9.5 MFI
same,fluorescence intensity,[15]; [26],9.5 MFI
same,fluorescence intensity,[15]; [27],11.8 MFI
same,fluorescence intensity,[15]; [28],37.5 MFI
same,fluorescence intensity,[16]; [29],23 MFI
same,fluorescence intensity,[16]; [30],20.5 MFI
same,fluorescence intensity,[16]; [31],20.5 MFI
same,fluorescence intensity,[16]; [32],19.2 MFI
same,fluorescence intensity,[16]; [25],20.5 MFI
same,fluorescence intensity,[16]; [26],23 MFI
same,fluorescence intensity,[16]; [27],25.5 MFI
same,fluorescence intensity,[16]; [28],36 MFI
same,fluorescence intensity,[17]; [29],18.5 MFI
same,fluorescence intensity,[17]; [30],17.5 MFI
same,fluorescence intensity,[17]; [31],20 MFI
same,fluorescence intensity,[17]; [32],17 MFI
same,fluorescence intensity,[17]; [25],17.5 MFI
same,fluorescence intensity,[17]; [26],18.5 MFI
same,fluorescence intensity,[17]; [27],21.5 MFI
same,fluorescence intensity,[17]; [28],33 MFI
same,fluorescence intensity,[18]; [29],17 MFI
same,fluorescence intensity,[18]; [30],43 MFI
same,fluorescence intensity,[18]; [31],77.2 MFI
same,fluorescence intensity,[18]; [32],53.8 MFI
same,fluorescence intensity,[18]; [26],71.5 MFI
same,fluorescence intensity,[18]; [27],83 MFI
same,fluorescence intensity,[18]; [28],108 MFI
same,fluorescence intensity,[19]; [29],14.5 MFI
same,fluorescence intensity,[19]; [30],16.5 MFI
same,fluorescence intensity,[19]; [31],16.5 MFI
same,fluorescence intensity,[19]; [32],18.2 MFI
same,fluorescence intensity,[19]; [25],16.5 MFI
same,fluorescence intensity,[19]; [26],17.5 MFI
same,fluorescence intensity,[19]; [27],18 MFI
same,fluorescence intensity,[19]; [28],23.5 MFI
same,fluorescence intensity,[20]; [29],20.5 MFI
same,fluorescence intensity,[20]; [30],18.5 MFI
same,fluorescence intensity,[20]; [31],19 MFI
same,fluorescence intensity,[20]; [32],18.5 MFI
same,fluorescence intensity,[20]; [25],20 MFI
same,fluorescence intensity,[20]; [26],20.2 MFI
same,fluorescence intensity,[20]; [27],26 MFI
same,fluorescence intensity,[20]; [28],107 MFI
same,fluorescence intensity,[21]; [29],17 MFI
same,fluorescence intensity,[21]; [30],17.5 MFI
same,fluorescence intensity,[21]; [31],15 MFI
same,fluorescence intensity,[21]; [32],15.5 MFI
same,fluorescence intensity,[21]; [25],14.8 MFI
same,fluorescence intensity,[21]; [26],15 MFI
same,fluorescence intensity,[21]; [27],17 MFI
same,fluorescence intensity,[21]; [28],31.5 MFI
same,fluorescence intensity,[22]; [29],14.8 MFI
same,fluorescence intensity,[22]; [30],16.8 MFI
same,fluorescence intensity,[22]; [31],17 MFI
same,fluorescence intensity,[22]; [32],15.2 MFI
same,fluorescence intensity,[22]; [25],14 MFI
same,fluorescence intensity,[22]; [26],14.8 MFI
same,fluorescence intensity,[22]; [27],17 MFI
same,fluorescence intensity,[22]; [28],28 MFI
same,fluorescence intensity,[23]; [29],13 MFI
same,fluorescence intensity,[23]; [30],14.8 MFI
same,fluorescence intensity,[23]; [31],13.5 MFI
same,fluorescence intensity,[23]; [32],14.5 MFI
same,fluorescence intensity,[23]; [25],14.5 MFI
same,fluorescence intensity,[23]; [26],15.5 MFI
same,fluorescence intensity,[23]; [27],22.2 MFI
same,fluorescence intensity,[23]; [28],72.5 MFI
same,fluorescence intensity,[24],20 MFI

# 32 successive entries from above, for reference:
binder,measurement,setting,value
B1,fluorescence intensity,[6]; [31],13 MFI
same,fluorescence intensity,[6]; [32],11.8 MFI
same,fluorescence intensity,[6]; [25],11.5 MFI
same,fluorescence intensity,[6]; [26],13 MFI
same,fluorescence intensity,[6]; [27],15 MFI
same,fluorescence intensity,[6]; [28],21 MFI
same,fluorescence intensity,[7]; [29],11.5 MFI
same,fluorescence intensity,[7]; [30],11 MFI
same,fluorescence intensity,[7]; [31],12 MFI
same,fluorescence intensity,[7]; [32],11.2 MFI
same,fluorescence intensity,[7]; [25],11 MFI
same,fluorescence intensity,[7]; [26],11.2 MFI
same,fluorescence intensity,[7]; [27],12.5 MFI
same,fluorescence intensity,[7]; [28],23.2 MFI
same,fluorescence intensity,[8]; [29],14 MFI
same,fluorescence intensity,[8]; [30],14.5 MFI
same,fluorescence intensity,[8]; [31],15.5 MFI
same,fluorescence intensity,[8]; [32],13.2 MFI
same,fluorescence intensity,[8]; [25],15 MFI
same,fluorescence intensity,[8]; [26],16.5 MFI
same,fluorescence intensity,[8]; [27],24.5 MFI
same,fluorescence intensity,[8]; [28],80.5 MFI
same,fluorescence intensity,[9]; [29],23 MFI
same,fluorescence intensity,[9]; [30],25.2 MFI
same,fluorescence intensity,[9]; [31],24 MFI
same,fluorescence intensity,[9]; [32],23 MFI
same,fluorescence intensity,[9]; [25],25 MFI
same,fluorescence intensity,[9]; [26],25.5 MFI
same,fluorescence intensity,[9]; [27],26.2 MFI
same,fluorescence intensity,[9]; [28],33 MFI
same,fluorescence intensity,[10]; [29],9.5 MFI
same,fluorescence intensity,[10]; [30],11 MFI
